Data from PMC12928700, “Structure of the human CTF18−RFC clamp loader bound to PCNA” (eLife, 2026).
Results are given in words; binding and its absence hold for the method and conditions named. Some results given as binding are weak or reduced against the parent protein; the word gives no strength.

Target: Ctf18 subunit of human CTF18–RFC (human) (UniProt Q8WVB6)
Experiment: co-purification; seven subunits co-expressed in insect cells; lysate over HisTrap HP, then Strep Trap XT (twin-Strep on Ctf18), TEV, Superdex 200; subunits seen by SDS–PAGE

Row | binding | Substance
1 | binds | Dcc1 subunit of human CTF18–RFC (from UniProt Q9BVC3 1-393)
2 | binds | Ctf8 subunit of human CTF18–RFC (from UniProt P0CG13 1-121)
